In PMC11161652, “ASXLs binding to the PHD2/3 fingers of MLL4 provides a mechanism for the recruitment of BAP1 to active enhancers” (Nature Communications, 2024):
Results are given in words; binding and its absence hold for the method and conditions named. Binding seen in cells or lysates may run through a third protein. A yes stands for co-enrichment or nearness to the bait. Other partners may have been found.

The chains behind the UniProt entries cited, without tags or fusion partners.
UniProt Q76L83: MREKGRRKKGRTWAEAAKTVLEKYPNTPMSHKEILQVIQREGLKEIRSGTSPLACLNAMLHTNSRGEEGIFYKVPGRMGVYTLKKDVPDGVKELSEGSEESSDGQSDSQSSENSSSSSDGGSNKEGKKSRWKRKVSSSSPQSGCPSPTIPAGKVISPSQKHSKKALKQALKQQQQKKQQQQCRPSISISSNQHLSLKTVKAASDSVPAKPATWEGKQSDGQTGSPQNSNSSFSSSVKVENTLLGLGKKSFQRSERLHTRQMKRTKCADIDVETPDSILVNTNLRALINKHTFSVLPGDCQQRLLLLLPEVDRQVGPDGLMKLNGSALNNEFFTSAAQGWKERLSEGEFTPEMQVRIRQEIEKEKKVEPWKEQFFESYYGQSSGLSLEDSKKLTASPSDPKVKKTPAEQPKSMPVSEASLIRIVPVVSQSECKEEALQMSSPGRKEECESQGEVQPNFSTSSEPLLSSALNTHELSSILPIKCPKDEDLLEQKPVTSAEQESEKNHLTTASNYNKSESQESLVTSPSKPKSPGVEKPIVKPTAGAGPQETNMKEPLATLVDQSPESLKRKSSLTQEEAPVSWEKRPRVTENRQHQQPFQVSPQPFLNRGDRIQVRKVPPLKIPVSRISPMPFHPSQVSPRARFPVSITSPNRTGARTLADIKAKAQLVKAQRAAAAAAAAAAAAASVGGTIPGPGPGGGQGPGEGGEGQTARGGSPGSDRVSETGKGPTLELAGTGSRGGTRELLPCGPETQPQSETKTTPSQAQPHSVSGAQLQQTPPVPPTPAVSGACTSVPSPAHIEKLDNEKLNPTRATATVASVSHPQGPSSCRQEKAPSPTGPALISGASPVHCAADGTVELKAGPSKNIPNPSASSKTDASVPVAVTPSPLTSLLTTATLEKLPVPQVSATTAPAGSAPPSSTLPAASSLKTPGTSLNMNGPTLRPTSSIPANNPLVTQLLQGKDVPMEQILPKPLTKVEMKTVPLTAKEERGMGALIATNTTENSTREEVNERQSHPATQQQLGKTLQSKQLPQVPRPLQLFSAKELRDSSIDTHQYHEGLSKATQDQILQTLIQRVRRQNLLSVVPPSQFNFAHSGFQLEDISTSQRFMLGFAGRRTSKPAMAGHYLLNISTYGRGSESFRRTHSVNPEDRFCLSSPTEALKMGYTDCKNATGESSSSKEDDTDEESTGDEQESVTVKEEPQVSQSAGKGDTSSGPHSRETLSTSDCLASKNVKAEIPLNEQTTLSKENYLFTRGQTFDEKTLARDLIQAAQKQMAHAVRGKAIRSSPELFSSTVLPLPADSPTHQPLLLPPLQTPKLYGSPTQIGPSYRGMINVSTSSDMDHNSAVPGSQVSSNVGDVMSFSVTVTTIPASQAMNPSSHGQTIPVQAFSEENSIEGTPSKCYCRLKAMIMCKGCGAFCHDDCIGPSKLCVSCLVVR
UniProt Q6ZW49: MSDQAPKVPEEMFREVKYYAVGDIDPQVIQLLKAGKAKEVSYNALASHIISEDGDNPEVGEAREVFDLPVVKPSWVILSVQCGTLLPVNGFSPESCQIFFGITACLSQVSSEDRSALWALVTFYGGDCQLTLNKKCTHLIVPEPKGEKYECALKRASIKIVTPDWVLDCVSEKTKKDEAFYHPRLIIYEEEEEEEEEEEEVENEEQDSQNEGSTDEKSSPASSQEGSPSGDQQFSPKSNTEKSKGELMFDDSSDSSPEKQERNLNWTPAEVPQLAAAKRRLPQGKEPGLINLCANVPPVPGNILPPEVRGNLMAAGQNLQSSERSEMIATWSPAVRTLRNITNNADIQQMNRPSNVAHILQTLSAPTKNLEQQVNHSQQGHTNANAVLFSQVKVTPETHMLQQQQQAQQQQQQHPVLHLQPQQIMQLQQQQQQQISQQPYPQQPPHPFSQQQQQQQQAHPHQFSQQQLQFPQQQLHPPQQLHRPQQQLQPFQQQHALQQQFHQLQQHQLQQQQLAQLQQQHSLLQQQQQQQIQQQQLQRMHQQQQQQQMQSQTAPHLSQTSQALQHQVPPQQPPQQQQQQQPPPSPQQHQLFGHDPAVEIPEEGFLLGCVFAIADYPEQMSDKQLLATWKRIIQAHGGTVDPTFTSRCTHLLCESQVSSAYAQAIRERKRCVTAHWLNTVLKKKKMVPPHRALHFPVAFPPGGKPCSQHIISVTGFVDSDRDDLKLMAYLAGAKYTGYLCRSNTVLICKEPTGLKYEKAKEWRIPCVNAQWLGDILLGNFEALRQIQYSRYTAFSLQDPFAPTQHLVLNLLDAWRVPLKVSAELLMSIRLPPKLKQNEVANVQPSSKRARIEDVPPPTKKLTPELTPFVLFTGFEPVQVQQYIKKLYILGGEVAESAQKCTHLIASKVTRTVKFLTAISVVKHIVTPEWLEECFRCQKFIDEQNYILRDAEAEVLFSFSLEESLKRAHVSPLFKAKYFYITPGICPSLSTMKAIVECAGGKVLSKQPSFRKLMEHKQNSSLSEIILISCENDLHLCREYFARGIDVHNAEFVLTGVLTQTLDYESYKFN
UniProt Q9UBL3: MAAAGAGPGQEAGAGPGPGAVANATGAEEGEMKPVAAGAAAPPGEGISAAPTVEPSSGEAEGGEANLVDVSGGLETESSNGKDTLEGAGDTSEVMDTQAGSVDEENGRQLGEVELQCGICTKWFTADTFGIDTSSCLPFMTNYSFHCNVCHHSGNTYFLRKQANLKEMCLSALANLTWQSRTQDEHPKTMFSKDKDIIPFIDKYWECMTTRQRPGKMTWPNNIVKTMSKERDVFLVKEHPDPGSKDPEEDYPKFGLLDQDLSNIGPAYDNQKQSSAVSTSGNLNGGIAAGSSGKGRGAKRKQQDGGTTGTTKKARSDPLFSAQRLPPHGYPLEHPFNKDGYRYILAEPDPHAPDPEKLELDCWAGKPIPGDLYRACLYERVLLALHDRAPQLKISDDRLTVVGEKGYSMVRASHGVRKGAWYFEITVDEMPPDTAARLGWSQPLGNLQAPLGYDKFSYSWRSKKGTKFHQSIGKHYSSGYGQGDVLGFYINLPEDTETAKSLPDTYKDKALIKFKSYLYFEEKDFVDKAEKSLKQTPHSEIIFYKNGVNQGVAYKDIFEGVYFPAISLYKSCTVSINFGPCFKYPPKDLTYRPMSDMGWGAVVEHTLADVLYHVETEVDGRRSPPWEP
UniProt Q15291: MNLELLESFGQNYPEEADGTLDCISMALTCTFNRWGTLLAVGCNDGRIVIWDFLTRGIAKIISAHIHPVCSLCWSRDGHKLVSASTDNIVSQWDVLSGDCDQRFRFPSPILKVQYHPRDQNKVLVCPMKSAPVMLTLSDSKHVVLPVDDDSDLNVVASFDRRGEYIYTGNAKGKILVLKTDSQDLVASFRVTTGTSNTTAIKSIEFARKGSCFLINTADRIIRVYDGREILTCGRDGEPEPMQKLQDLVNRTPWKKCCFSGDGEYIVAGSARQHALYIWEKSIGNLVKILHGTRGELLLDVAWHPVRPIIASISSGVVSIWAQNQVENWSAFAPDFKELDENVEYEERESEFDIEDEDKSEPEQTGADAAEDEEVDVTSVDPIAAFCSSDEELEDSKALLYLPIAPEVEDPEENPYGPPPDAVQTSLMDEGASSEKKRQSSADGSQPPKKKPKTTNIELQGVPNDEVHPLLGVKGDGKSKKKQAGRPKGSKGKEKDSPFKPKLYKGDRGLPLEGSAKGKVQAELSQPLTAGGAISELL
UniProt Q14686: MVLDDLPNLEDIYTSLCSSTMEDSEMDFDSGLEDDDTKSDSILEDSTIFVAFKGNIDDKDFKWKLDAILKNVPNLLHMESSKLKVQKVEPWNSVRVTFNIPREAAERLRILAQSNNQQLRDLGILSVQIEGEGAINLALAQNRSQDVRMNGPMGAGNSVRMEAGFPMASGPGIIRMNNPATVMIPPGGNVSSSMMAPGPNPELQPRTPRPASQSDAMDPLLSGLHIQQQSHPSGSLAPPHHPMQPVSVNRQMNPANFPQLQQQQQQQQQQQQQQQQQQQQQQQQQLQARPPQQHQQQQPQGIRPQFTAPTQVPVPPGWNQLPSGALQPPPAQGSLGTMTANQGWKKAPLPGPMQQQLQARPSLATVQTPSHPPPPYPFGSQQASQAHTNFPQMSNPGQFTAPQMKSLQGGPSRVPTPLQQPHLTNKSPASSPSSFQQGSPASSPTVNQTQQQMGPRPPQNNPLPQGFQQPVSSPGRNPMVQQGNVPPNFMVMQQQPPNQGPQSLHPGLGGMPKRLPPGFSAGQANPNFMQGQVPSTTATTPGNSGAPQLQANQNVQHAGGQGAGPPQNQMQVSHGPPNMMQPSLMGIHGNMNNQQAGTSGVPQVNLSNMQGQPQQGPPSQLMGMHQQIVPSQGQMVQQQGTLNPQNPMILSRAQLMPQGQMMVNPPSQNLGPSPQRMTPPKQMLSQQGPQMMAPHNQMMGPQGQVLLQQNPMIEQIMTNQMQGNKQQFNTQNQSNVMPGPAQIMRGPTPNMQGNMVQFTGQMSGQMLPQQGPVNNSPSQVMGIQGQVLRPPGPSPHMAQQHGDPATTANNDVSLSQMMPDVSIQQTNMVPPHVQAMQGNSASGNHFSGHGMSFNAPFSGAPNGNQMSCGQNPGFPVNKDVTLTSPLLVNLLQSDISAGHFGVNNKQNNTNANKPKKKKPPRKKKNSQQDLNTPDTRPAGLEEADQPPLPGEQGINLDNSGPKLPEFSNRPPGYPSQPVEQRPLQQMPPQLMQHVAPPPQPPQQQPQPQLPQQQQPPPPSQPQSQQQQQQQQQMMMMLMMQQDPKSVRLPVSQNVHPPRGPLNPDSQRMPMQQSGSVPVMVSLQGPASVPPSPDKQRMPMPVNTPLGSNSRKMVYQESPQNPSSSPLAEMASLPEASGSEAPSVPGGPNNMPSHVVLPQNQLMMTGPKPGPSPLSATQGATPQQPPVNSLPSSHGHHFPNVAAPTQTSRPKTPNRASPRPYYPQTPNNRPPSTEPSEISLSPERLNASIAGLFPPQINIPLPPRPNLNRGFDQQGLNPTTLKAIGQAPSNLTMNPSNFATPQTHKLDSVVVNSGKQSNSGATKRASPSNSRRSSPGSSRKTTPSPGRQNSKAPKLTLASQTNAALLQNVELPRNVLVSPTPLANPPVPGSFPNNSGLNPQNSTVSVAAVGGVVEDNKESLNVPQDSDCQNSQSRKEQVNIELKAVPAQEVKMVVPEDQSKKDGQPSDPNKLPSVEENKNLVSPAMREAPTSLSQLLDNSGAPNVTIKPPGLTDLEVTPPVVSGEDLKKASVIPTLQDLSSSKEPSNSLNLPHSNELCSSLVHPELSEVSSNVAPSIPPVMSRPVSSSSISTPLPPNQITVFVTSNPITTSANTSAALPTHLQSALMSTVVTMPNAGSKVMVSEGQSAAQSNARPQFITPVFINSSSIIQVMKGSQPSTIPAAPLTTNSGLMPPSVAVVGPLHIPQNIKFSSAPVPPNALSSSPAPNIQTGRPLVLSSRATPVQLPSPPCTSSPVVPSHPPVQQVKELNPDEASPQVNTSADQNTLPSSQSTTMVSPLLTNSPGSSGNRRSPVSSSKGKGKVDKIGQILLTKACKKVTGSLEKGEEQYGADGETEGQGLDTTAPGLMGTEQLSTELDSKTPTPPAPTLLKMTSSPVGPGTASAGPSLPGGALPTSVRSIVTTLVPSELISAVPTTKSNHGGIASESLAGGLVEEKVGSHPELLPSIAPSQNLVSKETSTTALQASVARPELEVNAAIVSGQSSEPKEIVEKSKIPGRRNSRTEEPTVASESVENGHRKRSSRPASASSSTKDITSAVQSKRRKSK

Biological target: 3Flag-2Strep-tagged ASXL2, full length wild type (human) (UniProt Q76L83)
Assay: affinity purification with mass spectrometry; tandem affinity purification (anti-FLAG, 3xFLAG peptide elution, then Strep-Tactin, biotin elution) of tagged ASXL2 WT or ΔMBH from K562 nuclear extracts; fractions analysed by western blot and mass spectrometry

binding, binds:
PAXIP1/PTIP (from UniProt Q6ZW49 1-1069)
ASH2L (from UniProt Q9UBL3 1-628)
RBBP5 (from UniProt Q15291 1-538)
NCOA6 (from UniProt Q14686 1-2063)
